In paper PMC8629984 one finds binding data, which are given here for 1 substance.

Results are given in words; binding and its absence hold for the method and conditions named. In cells and extracts the contact can be indirect. A result given as binding can be weak or reduced; the word gives no strength. Where a sequence is shown, tags or fusion partners need not be part of it.

The target of this experiment is T1, His-tagged ATG9B (ATG9B^His) (human) (UniProt Q674R7).
T1 sequence: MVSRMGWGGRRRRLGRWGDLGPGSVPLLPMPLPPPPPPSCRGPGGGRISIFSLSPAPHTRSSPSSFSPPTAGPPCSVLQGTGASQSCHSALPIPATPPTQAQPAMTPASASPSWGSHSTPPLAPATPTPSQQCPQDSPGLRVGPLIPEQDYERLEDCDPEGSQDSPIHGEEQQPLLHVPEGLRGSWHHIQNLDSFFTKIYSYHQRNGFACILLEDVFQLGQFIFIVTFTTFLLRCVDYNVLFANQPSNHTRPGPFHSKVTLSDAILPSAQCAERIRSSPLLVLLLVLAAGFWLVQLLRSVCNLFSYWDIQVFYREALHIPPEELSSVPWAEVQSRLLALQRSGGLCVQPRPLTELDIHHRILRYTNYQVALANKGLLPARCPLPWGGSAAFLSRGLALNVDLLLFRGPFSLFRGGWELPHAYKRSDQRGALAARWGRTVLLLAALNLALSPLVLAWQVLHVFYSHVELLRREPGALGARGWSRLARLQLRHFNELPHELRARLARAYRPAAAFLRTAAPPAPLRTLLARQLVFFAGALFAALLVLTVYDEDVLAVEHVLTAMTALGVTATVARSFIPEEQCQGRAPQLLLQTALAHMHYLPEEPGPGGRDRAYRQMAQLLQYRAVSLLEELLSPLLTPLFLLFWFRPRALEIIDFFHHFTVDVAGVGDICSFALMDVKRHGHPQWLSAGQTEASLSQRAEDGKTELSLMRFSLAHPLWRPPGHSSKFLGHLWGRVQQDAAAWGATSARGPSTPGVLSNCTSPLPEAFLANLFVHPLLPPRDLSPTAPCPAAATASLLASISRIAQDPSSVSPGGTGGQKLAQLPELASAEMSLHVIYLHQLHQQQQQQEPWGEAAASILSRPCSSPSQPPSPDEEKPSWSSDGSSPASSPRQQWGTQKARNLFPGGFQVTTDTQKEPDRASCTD
Nature of the experiment: co-IP; HEK293T cells transfected with His-tagged ATG9B constructs and Flag-tagged MYH9 constructs, RIPA lysates, IP with anti-Flag or anti-His, western blot.

“Flag-MYH9 truncation with the head domain (aa77–777) (human) (domain or fragment)”: the binding result was “binds”.
